The values below come from article PMC6134028, “Mutant FUS causes DNA ligation defects to inhibit oxidative damage repair in Amyotrophic Lateral Sclerosis” (Nature Communications, 2018).

Sequences of proteins named here, by UniProt entry; tags and fusion partners are left off.
UniProt P35637: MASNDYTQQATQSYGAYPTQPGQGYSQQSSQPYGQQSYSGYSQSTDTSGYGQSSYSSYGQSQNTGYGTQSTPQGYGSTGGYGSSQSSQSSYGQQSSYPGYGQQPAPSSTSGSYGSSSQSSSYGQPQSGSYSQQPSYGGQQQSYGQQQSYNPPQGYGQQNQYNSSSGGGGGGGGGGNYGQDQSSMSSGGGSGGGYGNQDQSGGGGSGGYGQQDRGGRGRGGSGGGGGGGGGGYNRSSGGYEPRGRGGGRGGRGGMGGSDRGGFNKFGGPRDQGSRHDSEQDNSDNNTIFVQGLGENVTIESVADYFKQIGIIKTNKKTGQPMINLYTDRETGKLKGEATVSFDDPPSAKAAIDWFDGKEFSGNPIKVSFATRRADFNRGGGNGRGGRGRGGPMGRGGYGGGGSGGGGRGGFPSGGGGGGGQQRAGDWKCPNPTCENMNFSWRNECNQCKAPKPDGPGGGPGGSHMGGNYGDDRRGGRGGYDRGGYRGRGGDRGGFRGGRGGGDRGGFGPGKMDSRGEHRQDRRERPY
UniProt P18887: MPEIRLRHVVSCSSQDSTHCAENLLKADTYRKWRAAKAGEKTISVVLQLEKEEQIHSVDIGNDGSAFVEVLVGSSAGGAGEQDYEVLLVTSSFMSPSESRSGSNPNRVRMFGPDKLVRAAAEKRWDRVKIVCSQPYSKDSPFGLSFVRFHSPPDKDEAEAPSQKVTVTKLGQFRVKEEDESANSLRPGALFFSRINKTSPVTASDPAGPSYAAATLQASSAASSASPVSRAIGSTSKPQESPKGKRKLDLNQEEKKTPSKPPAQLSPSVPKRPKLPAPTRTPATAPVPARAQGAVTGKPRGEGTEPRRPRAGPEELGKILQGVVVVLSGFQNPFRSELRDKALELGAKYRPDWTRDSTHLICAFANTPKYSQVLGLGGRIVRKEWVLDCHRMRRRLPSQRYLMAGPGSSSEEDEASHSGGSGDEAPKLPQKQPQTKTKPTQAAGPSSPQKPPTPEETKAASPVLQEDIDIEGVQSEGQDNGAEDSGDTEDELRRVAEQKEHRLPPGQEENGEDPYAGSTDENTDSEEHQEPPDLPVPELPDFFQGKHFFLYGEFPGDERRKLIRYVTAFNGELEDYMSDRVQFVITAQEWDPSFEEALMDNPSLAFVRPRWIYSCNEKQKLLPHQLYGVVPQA
UniProt P09874: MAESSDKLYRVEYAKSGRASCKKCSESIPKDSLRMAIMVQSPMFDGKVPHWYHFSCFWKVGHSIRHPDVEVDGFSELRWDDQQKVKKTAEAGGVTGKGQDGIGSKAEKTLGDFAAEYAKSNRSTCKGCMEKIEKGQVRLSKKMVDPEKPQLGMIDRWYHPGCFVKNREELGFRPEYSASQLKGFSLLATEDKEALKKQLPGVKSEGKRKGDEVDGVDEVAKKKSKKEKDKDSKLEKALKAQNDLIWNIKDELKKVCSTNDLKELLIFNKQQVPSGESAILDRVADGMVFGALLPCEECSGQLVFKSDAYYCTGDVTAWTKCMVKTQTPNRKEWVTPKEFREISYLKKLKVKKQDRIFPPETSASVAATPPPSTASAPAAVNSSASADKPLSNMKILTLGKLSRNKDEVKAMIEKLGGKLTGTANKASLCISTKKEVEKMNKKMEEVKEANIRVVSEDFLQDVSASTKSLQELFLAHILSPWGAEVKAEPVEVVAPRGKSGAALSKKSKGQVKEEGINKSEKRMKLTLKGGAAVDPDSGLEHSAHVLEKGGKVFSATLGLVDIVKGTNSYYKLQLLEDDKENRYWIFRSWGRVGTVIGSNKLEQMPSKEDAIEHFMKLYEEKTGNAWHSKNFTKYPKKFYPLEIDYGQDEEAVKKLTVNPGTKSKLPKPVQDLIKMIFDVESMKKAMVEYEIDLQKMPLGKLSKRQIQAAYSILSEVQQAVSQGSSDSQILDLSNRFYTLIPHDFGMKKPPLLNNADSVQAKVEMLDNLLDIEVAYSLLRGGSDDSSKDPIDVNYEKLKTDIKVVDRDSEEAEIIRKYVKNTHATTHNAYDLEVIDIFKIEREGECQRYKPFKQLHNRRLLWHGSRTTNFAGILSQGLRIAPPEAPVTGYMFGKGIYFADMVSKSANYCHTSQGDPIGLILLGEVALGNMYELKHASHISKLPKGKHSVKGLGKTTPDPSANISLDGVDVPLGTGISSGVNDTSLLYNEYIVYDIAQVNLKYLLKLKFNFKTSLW

These are yes or no findings as the source states them, for the method shown. Binding seen in cells or lysates may run through a third protein. A yes stands for co-enrichment or nearness to the bait. Other partners may have been found.

This assay has as its target Fused in Sarcoma (FUS), endogenous (human (endogenous in SH-SY5Y and iPSC-derived motor neurons)) (UniProt P35637). Description: affinity purification with mass spectrometry; co-IP with a FUS antibody from GO-treated SH-SY5Y cells, mass spectrometry of the precipitate.

As for “XRCC1, endogenous (from UniProt P18887 1-633)”, the binding entry is on record as “binds”.
For the substance “poly(ADP-ribose) polymerase 1 (PARP1), endogenous (from UniProt P09874 1-1014)”, the binding result is reported as “binds”.
